{"source": "patent US20060074100A1", "about": "“Histone deacetylase inhibitors for the treatment of ocular neovascular or edematous disorders and diseases” (priority 2002, published 2006)", "origin": "cited, not measured here", "test_system": "VEGF-induced neovascularization", "data": [{"compound": "O=C(CCCCCCC(=O)Nc1ccccc1)NO", "note": "[SAHA, suberoylanilide hydroxamic acid]", "values": [{"measurement": "inhibition of VEGF-induced neovascularization", "value": "can inhibit VEGF-induced neovascularization"}]}]}
